# Reference: article PMC5132261
# These are yes or no findings as the source states them, for the method shown. Where a sequence is shown, tags or fusion partners need not be part of it.
# Biological target: T1, GFP-ELKS2 (UniProt Q8K3M6)
# T1 sequence: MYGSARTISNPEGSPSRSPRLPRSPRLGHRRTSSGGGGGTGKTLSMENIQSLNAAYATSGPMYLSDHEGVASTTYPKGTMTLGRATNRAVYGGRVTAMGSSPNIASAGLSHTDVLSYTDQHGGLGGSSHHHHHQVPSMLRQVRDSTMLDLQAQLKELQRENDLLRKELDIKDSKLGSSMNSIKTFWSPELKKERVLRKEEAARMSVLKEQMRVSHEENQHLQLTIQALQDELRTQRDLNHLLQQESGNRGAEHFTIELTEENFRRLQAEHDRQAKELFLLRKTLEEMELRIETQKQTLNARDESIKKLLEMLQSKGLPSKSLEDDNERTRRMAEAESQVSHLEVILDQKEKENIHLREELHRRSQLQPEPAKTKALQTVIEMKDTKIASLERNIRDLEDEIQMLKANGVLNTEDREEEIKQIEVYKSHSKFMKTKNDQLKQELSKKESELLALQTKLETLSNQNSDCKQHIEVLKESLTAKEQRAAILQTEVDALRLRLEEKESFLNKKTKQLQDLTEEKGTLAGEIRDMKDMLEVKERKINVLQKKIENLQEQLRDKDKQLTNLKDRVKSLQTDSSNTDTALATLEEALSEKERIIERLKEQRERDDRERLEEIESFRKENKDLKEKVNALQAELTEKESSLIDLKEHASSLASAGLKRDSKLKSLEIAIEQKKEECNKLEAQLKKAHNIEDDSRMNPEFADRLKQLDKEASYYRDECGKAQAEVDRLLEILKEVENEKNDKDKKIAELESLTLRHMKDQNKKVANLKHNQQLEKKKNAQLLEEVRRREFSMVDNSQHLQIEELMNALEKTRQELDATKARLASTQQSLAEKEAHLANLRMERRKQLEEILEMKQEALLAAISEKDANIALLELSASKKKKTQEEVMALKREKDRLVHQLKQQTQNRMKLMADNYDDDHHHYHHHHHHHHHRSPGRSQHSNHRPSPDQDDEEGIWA
# Test: co-clustering assay (immunofluorescence of co-transfected COS7 cells); Myc-tagged Trio proteins scored for clustering with the puncta of GFP-Bassoon (or GFP-ELKS2); positive: more than 70% of cells, negative: fewer than 10% of cells
substance,measurement,value
Myc-Trio-FL (human),binding,no binding
